From paper PMC5534098
No constants are given. Whether binding was seen depends on the method and setting. In cells and extracts the contact can be indirect. Some binding calls cover weakened binding; strength is not graded here.

Amino acid sequences for entries named in this document (tags omitted).
UniProt O75475: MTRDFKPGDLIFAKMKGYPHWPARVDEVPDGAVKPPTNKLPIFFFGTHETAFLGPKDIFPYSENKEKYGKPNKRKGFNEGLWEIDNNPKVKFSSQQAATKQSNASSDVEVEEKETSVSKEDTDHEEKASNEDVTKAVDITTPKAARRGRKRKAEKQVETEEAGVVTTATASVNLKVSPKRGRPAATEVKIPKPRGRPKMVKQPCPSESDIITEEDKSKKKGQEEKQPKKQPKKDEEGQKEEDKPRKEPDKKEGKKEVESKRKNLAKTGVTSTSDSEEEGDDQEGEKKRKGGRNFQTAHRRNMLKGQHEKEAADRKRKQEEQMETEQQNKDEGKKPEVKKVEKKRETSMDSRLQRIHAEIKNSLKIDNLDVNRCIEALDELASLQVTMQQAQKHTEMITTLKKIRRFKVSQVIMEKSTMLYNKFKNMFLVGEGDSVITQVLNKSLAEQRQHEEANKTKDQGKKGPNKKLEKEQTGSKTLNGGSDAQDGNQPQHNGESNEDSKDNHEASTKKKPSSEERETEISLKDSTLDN
UniProt Q08945: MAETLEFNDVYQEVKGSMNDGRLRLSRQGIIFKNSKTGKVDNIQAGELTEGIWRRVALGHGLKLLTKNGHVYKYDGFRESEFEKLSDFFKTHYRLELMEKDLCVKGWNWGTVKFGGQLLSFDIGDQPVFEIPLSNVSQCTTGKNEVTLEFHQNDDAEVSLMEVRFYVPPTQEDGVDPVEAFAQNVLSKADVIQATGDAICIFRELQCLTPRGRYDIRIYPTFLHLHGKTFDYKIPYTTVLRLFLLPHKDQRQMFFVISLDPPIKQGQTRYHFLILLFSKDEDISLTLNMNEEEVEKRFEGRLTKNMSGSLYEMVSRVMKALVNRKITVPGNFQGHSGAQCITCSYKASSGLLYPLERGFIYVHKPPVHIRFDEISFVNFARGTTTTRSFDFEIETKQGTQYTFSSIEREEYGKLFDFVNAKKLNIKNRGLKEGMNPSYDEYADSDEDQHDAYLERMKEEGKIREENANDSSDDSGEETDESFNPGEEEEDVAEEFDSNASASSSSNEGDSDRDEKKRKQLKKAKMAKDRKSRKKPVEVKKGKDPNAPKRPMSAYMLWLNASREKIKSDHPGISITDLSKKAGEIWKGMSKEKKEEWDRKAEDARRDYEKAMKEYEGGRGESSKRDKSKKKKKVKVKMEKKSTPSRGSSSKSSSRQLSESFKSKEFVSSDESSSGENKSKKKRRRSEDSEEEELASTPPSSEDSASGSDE

Biological target: FLAG-LEDGF/p75 (UniProt O75475)
Test: co-IP

- binding: binds
Substance: SSRP1-Myc (from UniProt Q08945 1-709)
